# Data taken from patent EP1352247B1, “ASSAY METHODS FOR IDENTIFYING COMPOUNDS WHICH MAY PROTECT STRATIFIED SQUAMOUS EPITHELIUM AGAINST DAMAGE BY NOXIOUS SUBSTANCES” (The Administrators of the Tulane Educational Fund, priority 2000, dated 2002).
# “Also recorded” adds a separate entry of the source. For at least one compound, name, drawing or mass did not settle the structure.
# What was measured:
# Uvomorulin/E-cadherin [1] = target: T1, Uvomorulin/E-cadherin (Oryctolagus cuniculus, UniProt G1TYT3); assay: SDS gel electrophoresis of homogenized epithelium: fragmentation of E-cadherin after acid-pepsin or N-acetylcysteine; design: species or system rabbit; conditions: epithelia treated first with agent, then acid-pepsin or N-acetylcysteine
# T1 construct: Uvomorulin/E-cadherin was identified by SDS gel electrophoresis in homogenates of esophageal epithelium; from tissue; host or cells: esophageal epithelium (rabbit, inferred), treated in Ussing chambers and then homogenized
# T1 sequence (G1TYT3 25-884): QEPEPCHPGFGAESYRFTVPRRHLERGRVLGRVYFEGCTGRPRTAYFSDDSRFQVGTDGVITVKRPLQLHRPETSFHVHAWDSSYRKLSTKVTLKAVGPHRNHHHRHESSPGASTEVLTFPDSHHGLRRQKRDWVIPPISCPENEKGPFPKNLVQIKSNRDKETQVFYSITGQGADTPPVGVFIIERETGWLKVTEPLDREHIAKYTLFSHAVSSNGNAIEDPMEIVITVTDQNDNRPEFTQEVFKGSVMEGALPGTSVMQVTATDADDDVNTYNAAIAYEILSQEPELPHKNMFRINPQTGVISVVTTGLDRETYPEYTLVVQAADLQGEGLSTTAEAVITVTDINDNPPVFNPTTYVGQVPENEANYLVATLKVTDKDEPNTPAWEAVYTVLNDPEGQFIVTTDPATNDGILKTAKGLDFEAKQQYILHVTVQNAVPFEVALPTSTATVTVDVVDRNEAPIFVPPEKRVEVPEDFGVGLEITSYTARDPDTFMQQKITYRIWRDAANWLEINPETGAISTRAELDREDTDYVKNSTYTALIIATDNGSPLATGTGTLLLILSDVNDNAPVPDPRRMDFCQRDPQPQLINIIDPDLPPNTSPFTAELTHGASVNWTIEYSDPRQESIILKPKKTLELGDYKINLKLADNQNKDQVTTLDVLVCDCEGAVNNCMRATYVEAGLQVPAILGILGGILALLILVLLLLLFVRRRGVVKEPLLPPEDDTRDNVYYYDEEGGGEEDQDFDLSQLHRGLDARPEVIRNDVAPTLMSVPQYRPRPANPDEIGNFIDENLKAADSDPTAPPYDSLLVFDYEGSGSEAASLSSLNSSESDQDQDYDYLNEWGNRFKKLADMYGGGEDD
# Uvomorulin/E-cadherin [2] = target: T1, Uvomorulin/E-cadherin; assay: SDS gel electrophoresis of homogenized epithelium: binding of Mab to Uvomorulin/E-cadherin to its antigen; conditions: epithelium luminally pretreated, without prior junctional opening
structure (smiles),measurement,setting,value
"CC(=O)Nc1ccc(C=Cc2ccc(N=C=S)cc2S(=O)(=O)O)c(S(=O)(=O)O)c1 [SITS, 4-acetamido-4'-isothiocyano-2,2'-stilbene disulfonate]",breakdown or fragmentation of the extracellular domain of E-cadherin (bands stained with Mab),Uvomorulin/E-cadherin [1],the two bands at approximately 50 kD were not seen; also recorded: resistant to the degradation
same,binding of a Mab to Uvomorulin/E-cadherin to its antigen,Uvomorulin/E-cadherin [2],inhibit the binding
